Reference: US11168077B2, “Molecular rotor-based D-amino acids as tools for imaging peptidoglycan biosynthesis” (Indiana University Research and Technology Corporation, priority 2018, dated 2021)
Some entries share one result that the patent states for a list of compounds.

Target: T1, S. aureus PBP4 (Staphylococcus aureus, UniProt P72355)
T1 sequence (P72355 25-431): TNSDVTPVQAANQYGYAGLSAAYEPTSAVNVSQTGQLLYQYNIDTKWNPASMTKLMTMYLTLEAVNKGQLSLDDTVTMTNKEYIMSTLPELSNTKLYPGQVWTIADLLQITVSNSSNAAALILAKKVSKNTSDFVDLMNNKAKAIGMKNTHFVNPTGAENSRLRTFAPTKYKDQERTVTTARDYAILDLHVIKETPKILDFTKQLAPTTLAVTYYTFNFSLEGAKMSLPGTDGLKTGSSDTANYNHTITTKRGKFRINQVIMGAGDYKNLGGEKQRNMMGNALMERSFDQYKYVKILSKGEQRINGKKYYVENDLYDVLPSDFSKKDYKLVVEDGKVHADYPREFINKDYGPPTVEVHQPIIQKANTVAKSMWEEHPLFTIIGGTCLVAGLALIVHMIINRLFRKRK
Assay: Nitrocefin assay of PBP4 β-lactamase activity in the presence of antibiotics
Assay type: biochemical
Conditions: in the presence of the antibiotic; normalized to no antibiotic sample
Description: FIG. 12F depicts β-lactamase activity of S. aureus PBP4 in the presence of antibiotics. Nitrocefin degradation by PBP4 results in an increase of absorbance at 500 nm, which is used to measure β-lactamase activity. Low activity stands for a strong inhibition effect of the antibiotics toward PBP4, and vice versa. Values are normalized to the “no antibiotic” sample.
We further evaluated the utility of this assay for in vitro high-throughput screening for antibiotics. We tested various antibiotics (0.1 equiv. to the substrate) and measured the initial rate of fluorescence increase (FIG. 12E). […] To further confirm the inhibitory effect of these β-lactams toward S. aureus PBP4, we performed a Nitrocefin assay, which tests PBP's β-lactamase activity, in the presence of the antibiotics. […] We also note that this assay can be conducted in an end-point manner, providing an efficient way to test a large number of samples since only a single measurement is required per sample. End-point assays potentially enable high-throughput applications for drug screening and transpeptidation reaction studies.

Compound | Inhibition of Nitrocefin hydrolysis [%]
CC1(C)S[C@@H]2[C@H](NC(=O)C(C(=O)O)c3ccccc3)C(=O)N2[C@H]1C(=O)O (some centres unmarked) [Carbenicillin] | > 50
CO[C@@]1(NC(=O)Cc2cccs2)C(=O)N2C(C(=O)O)=C(COC(N)=O)CS[C@@H]21 [Cefoxitin] | > 50
